From publication PMC9343881 come the findings set out here.

Amino acid sequences for entries named in this document (tags omitted).
UniProt P06821: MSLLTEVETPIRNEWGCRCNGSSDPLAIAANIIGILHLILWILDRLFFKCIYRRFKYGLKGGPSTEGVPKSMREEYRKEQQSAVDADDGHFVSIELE

These are yes or no findings as the source states them, for the method shown. In cells and extracts the contact can be indirect. These calls come from enrichment with a bait or labelling near it, and not all partners need be listed.

The target in the assay is M2 used in the immunoprecipitation with mass spectrometry (IP-MS) (influenza A virus (strain not stated for this experiment)) (UniProt P06821). Briefly: affinity purification with mass spectrometry.

B1: endogenous YWHAG (protein, UniProt P61981 1-247)
chain: MVDREQLVQKARLAEQAERYDDMAAAMKNVTELNEPLSNEERNLLSVAYKNVVGARRSSWRVISSIEQKTSADGNEKKIEMVRAYREKIEKELEAVCQDVLSLLDNYLIKNCSETQYESKVFYLKMKGDYYRYLAEVATGEKRATVVESSEKAYSEAHEISKEHMQPTHPIRLGLALNYSVFYYEIQNAPEQACHLAKTAFDDAIAELDTLNEDSYKDSTLIMQLLRDNLTLWTSDQQDDDGGEGNN
For the molecule B1, the binding result was “binds”.
